Results taken from the supplement of paper PMC6658780.
Counter-ions that a name gives are not always drawn. ± gives the standard deviation of the averaged measurements. The list shows a part of the results. Single values are uncertain here, since repeats match poorly.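 The A. baumannii clinical isolates were selected for resistance to the partner antibiotic; the screen seeks drugs that restore its effect. Background from coloured compounds is removed by subtracting the start-of-incubation reading.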

Experiments:
[1] = tested on: Acinetobacter baumannii WP-487; assay: percent growth inhibition of drug + antibiotic vs DMSO control; higher = more growth inhibition; conditions: antibiotic (0.125x MIC): colistin
[2] = tested on: Acinetobacter baumannii WP-487; assay: percent growth inhibition of drug alone vs DMSO control; higher = more growth inhibition; conditions: antibiotic (0.125x MIC): none (0.1% DMSO)

SMILES: CN1CCC(=C2c3ccccc3Sc3ccccc32)CC1 [Pimethixene maleate]
- percent growth inhibition ([1]; 7 µM): 0.435 ± 4.3%
- percent growth inhibition ([1]; 20 µM): 53.7 ± 65%

SMILES: Oc1c(I)cc(Cl)c2cccnc12 [Clioquinol]
- percent growth inhibition of drug alone ([2]; 7 µM): 17.6 ± 34%
- percent growth inhibition of drug alone ([2]; 20 µM): 99.98 ± 0.11%
- percent growth inhibition ([1]; 7 µM): 71.8 ± 40%
- percent growth inhibition ([1]; 20 µM): 99.64 ± 0.68%

SMILES: Nc1ccc(S(=O)(=O)c2ccc(N)cc2)cc1 [Dapsone]
- percent growth inhibition ([1]; 7 µM): 2.14 ± 9%
- percent growth inhibition ([1]; 20 µM): 44.7 ± 73%

SMILES: N#CC(c1ccc(Cl)cc1)c1c(Cl)cc(-n2ncc(=O)[nH]c2=O)cc1Cl (stereo not given) [Diclazuril]
- percent growth inhibition of drug alone ([2]; 7 µM): 3.53 ± 1.4%
- percent growth inhibition of drug alone ([2]; 20 µM): -2.27 ± 2.1%
- percent growth inhibition ([1]; 7 µM): 2.74 ± 7.8%
- percent growth inhibition ([1]; 20 µM): 55.1 ± 64%

SMILES: OCCN1CCN(CC/C=C2/c3ccccc3Sc3ccc(Cl)cc32)CC1 [Zuclopenthixol dihydrochloride]
- percent growth inhibition ([1]; 7 µM): 51 ± 56%
- percent growth inhibition ([1]; 20 µM): 50.7 ± 57%

SMILES: OC(c1cc(C(F)(F)F)nc2c(C(F)(F)F)cccc12)C1CCCCN1 (stereo not given) [Mefloquine hydrochloride]
- percent growth inhibition of drug alone ([2]; 7 µM): 6.85 ± 1.6%
- percent growth inhibition of drug alone ([2]; 20 µM): 8.36 ± 14%
- percent growth inhibition ([1]; 7 µM): 8.4 ± 22%
- percent growth inhibition ([1]; 20 µM): 60.5 ± 56%

SMILES: Cc1onc(-c2c(F)cccc2Cl)c1C(=O)N[C@@H]1C(=O)N2[C@@H]1SC(C)(C)[C@@H]2C(=O)O [Flucloxacillin sodium]
- percent growth inhibition ([1]; 7 µM): 48.6 ± 56%
- percent growth inhibition ([1]; 20 µM): 50.1 ± 54%
